# Data: the supplement of paper PMC8728848
# The list shows a part of the results.
# B1: PX15642A-pgi-501-20-501 (Parabacteroides gingivalis) (protein)
# chain: CELDRDPEGKDFQQPYTSFVQTKQNRDGLYALLRNTENPRMHFYQELQSDMYCTTITDGNSLAPFVNWDLGILNDHGRADEDEVSGIAGYYFVYNRLNQQANAFVNNTEAALQNQVYKNSTEIANAKSFLAEGKVLQALAIWRLMDRFSFHESVTEVNSGAKDLGVILLKEYNPGYIGPRATKAQCYDYILSRLSEAIEVLPENRESVLYVSRDYAYALRARIYLALGEYGKAAADAKMVVDKYPLIGAADASEFENIYRSDANNPEIIFRGFASATLGSFTATTLNGAAPAGKDIKYNPSAVPFQWVVDLYENEDFRKSVYIAKVVKKDKGYLVNKFLEDKAYRDVQDKPNLKVGARYFSVAEVYLILVESALQTGDTPTAEKYLKALSKARGAEVSVVNMEALQAERTRELIGEGSRLRDMVRWSIPNNHDAFETQPGLEGFANTTPLKAQAPVGFYAYTWEFPQRDRQTNPQLIKNWPI
# Experiments:
# Experiment in all cases: glycan array binding signal (z-score within array); higher = stronger binding
# Details in all cases: glycan notation: IUPAC condensed, linker removed
# Gal3S(b1-4)Glc = biological target: Gal3S(b1-4)Glc
# Outline: (§1)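 Columns mapping to the same glycan were averaged after glycan names were converted to IUPAC-condensed notation. The data come from 3228 arrays in the Consortium for Functional Glycomics database, limited to those with an available protein sequence. Binding is reported as a within-array Z-score averaged across arrays of one protein sequence and across linkers.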
# Gal3S(b1-4)Glc6S = biological target: Gal3S(b1-4)Glc6S
# Outline: as §1
# Gal3S(b1-4)GlcNAc = biological target: Gal3S(b1-4)GlcNAc
# Outline: as §1
# [1] = biological target: Gal3S(b1-4)[Fuc(a1-3)]Glc6S
# Outline: as §1
# [2] = biological target: Gal3S(b1-4)[Fuc(a1-3)]GlcNAc
# Outline: as §1
# [3] = biological target: Gal3S(b1-4)[Fuc(a1-3)]GlcNAc6S
# Outline: as §1
# Gal3S4S(b1-4)GlcNAc = biological target: Gal3S4S(b1-4)GlcNAc
# Outline: as §1
# Gal3S6S(b1-4)GlcNAc = biological target: Gal3S6S(b1-4)GlcNAc
# Outline: as §1
# Gal3S6S(b1-4)GlcNAc6S = biological target: Gal3S6S(b1-4)GlcNAc6S
# Outline: as §1
# Gal4S(b1-4)GlcNAc = biological target: Gal4S(b1-4)GlcNAc
# Outline: as §1
# Gal4S6S(b1-4)GlcNAc = biological target: Gal4S6S(b1-4)GlcNAc
# Outline: as §1
# Gal6P(b1-4)GlcNAc = biological target: Gal6P(b1-4)GlcNAc
# Outline: as §1
# Gal6S(b1-3)GlcNAc = biological target: Gal6S(b1-3)GlcNAc
# Outline: as §1
# Gal6S(b1-3)GlcNAc6S = biological target: Gal6S(b1-3)GlcNAc6S
# Outline: as §1
# Gal6S(b1-4)Glc = biological target: Gal6S(b1-4)Glc
# Outline: as §1
# Gal6S(b1-4)Glc6S = biological target: Gal6S(b1-4)Glc6S
# Outline: as §1
# Gal6S(b1-4)GlcNAc = biological target: Gal6S(b1-4)GlcNAc
# Outline: as §1
# Gal6S(b1-4)GlcNAc6S = biological target: Gal6S(b1-4)GlcNAc6S
# Outline: as §1
# GalNAc(a1-3)Gal = biological target: GalNAc(a1-3)Gal
# Outline: as §1
# GalNAc(a1-3)GalNAc = biological target: GalNAc(a1-3)GalNAc
# Outline: as §1
# [4] = biological target: GalNAc(a1-3)GalNAc(b1-3)Gal(a1-4)Gal(b1-4)Glc
# Outline: as §1
# [5] = biological target: GalNAc(a1-3)GalNAc(b1-3)Gal(a1-4)Gal(b1-4)GlcNAc
# Outline: as §1
# GalNAc(b1-3)Gal = biological target: GalNAc(b1-3)Gal
# Outline: as §1
# [6] = biological target: GalNAc(b1-3)Gal(a1-4)Gal(b1-4)GlcNAc
# Outline: as §1
# [7] = biological target: GalNAc(b1-3)Gal(a1-4)Gal(b1-4)GlcNAc(b1-3)Gal(b1-4)Glc
# Outline: as §1
# [8] = biological target: GalNAc(b1-3)Gal(a1-6)Gal(b1-4)Glc
# Outline: as §1
# GalNAc(b1-3)GalNAc = biological target: GalNAc(b1-3)GalNAc
# Outline: as §1
# GalNAc(b1-3)GlcNAc = biological target: GalNAc(b1-3)GlcNAc
# Outline: as §1
# GalNAc(b1-4)Gal(b1-4)Glc = biological target: GalNAc(b1-4)Gal(b1-4)Glc
# Outline: as §1
# GalNAc(b1-4)GlcNAc = biological target: GalNAc(b1-4)GlcNAc
# Outline: as §1
# [9] = biological target: GalNAc(b1-4)GlcNAc(b1-2)Man
# Outline: as §1
# [10] = biological target: GalNAc(b1-4)GlcNAc(b1-2)Man(a1-3)[GalNAc(b1-4)GlcNAc(b1-2)Man(a1-6)]Man(b1-4)GlcNAc(b1-4)GlcNAc
# Outline: as §1
# [11] = biological target: GalNAc(b1-4)GlcNAc(b1-3)GalNAc(b1-4)GlcNAc
# Outline: as §1
# GalNAc(b1-4)GlcNAc6S = biological target: GalNAc(b1-4)GlcNAc6S
# Outline: as §1
# GalNAc(b1-6)GalNAc = biological target: GalNAc(b1-6)GalNAc
# Outline: as §1
# GalNAc3S(b1-4)GlcNAc = biological target: GalNAc3S(b1-4)GlcNAc
# Outline: as §1
# GalNAc3S(b1-4)GlcNAc3S = biological target: GalNAc3S(b1-4)GlcNAc3S
# Outline: as §1
# [12] = biological target: GalNAc3S(b1-4)[Fuc(a1-3)]GlcNAc
# Outline: as §1
# GalNAc4S6S(b1-4)GlcNAc = biological target: GalNAc4S6S(b1-4)GlcNAc
# Outline: as §1
# GalNAc6S(b1-4)GlcNAc = biological target: GalNAc6S(b1-4)GlcNAc
# Outline: as §1
# Glc(a1-4)Glc = biological target: Glc(a1-4)Glc
# Outline: as §1
# [13] = biological target: Glc(a1-4)Glc(a1-4)Glc(a1-4)Glc
# Outline: as §1
# Glc(a1-6)Glc(a1-6)Glc = biological target: Glc(a1-6)Glc(a1-6)Glc
# Outline: as §1
# [14] = biological target: Glc(a1-6)Glc(a1-6)Glc(a1-6)Glc
# Outline: as §1
# Glc(b1-4)Glc = biological target: Glc(b1-4)Glc
# Outline: as §1
binder,measurement,setting,value
B1,glycan array binding signal (z-score),Gal3S(b1-4)Glc,0.744
same,glycan array binding signal (z-score),Gal3S(b1-4)Glc6S,-0.055
same,glycan array binding signal (z-score),Gal3S(b1-4)GlcNAc,0.229
same,glycan array binding signal (z-score),[1],0.875
same,glycan array binding signal (z-score),[2],-0.713
same,glycan array binding signal (z-score),[3],0.301
same,glycan array binding signal (z-score),Gal3S4S(b1-4)GlcNAc,-0.041
same,glycan array binding signal (z-score),Gal3S6S(b1-4)GlcNAc,0.098
same,glycan array binding signal (z-score),Gal3S6S(b1-4)GlcNAc6S,0.761
same,glycan array binding signal (z-score),Gal4S(b1-4)GlcNAc,-0.028
same,glycan array binding signal (z-score),Gal4S6S(b1-4)GlcNAc,0.294
same,glycan array binding signal (z-score),Gal6P(b1-4)GlcNAc,-0.543
same,glycan array binding signal (z-score),Gal6S(b1-3)GlcNAc,0.549
same,glycan array binding signal (z-score),Gal6S(b1-3)GlcNAc6S,0.484
same,glycan array binding signal (z-score),Gal6S(b1-4)Glc,-0.221
same,glycan array binding signal (z-score),Gal6S(b1-4)Glc6S,-0.22
same,glycan array binding signal (z-score),Gal6S(b1-4)GlcNAc,-0.272
same,glycan array binding signal (z-score),Gal6S(b1-4)GlcNAc6S,-0.062
same,glycan array binding signal (z-score),GalNAc(a1-3)Gal,0.395
same,glycan array binding signal (z-score),GalNAc(a1-3)GalNAc,0.045
same,glycan array binding signal (z-score),[4],-0.054
same,glycan array binding signal (z-score),[5],-0.152
same,glycan array binding signal (z-score),GalNAc(b1-3)Gal,-1.07
same,glycan array binding signal (z-score),[6],0.004
same,glycan array binding signal (z-score),[7],-0.279
same,glycan array binding signal (z-score),[8],-0.823
same,glycan array binding signal (z-score),GalNAc(b1-3)GalNAc,-0.872
same,glycan array binding signal (z-score),GalNAc(b1-3)GlcNAc,-0.542
same,glycan array binding signal (z-score),GalNAc(b1-4)Gal(b1-4)Glc,0.047
same,glycan array binding signal (z-score),GalNAc(b1-4)GlcNAc,0.727
same,glycan array binding signal (z-score),[9],0.118
same,glycan array binding signal (z-score),[10],1.15
same,glycan array binding signal (z-score),[11],5.6
same,glycan array binding signal (z-score),GalNAc(b1-4)GlcNAc6S,-0.092
same,glycan array binding signal (z-score),GalNAc(b1-6)GalNAc,-0.899
same,glycan array binding signal (z-score),GalNAc3S(b1-4)GlcNAc,0.044
same,glycan array binding signal (z-score),GalNAc3S(b1-4)GlcNAc3S,0.048
same,glycan array binding signal (z-score),[12],-0.47
same,glycan array binding signal (z-score),GalNAc4S6S(b1-4)GlcNAc,0.354
same,glycan array binding signal (z-score),GalNAc6S(b1-4)GlcNAc,-1.07
same,glycan array binding signal (z-score),Glc(a1-4)Glc,-0.101
same,glycan array binding signal (z-score),[13],-0.549
same,glycan array binding signal (z-score),Glc(a1-6)Glc(a1-6)Glc,1.35
same,glycan array binding signal (z-score),[14],-0.152
same,glycan array binding signal (z-score),Glc(b1-4)Glc,-0.774

# Two records drawn at random from those above:
binder,measurement,setting,value
B1,glycan array binding signal (z-score),Gal6S(b1-4)Glc6S,-0.22
same,glycan array binding signal (z-score),Gal6S(b1-4)GlcNAc6S,-0.062

# Some of the entries so far, tab-delimited:
binder	measurement	setting	value
B1	glycan array binding signal (z-score)	[6]	0.004
same	glycan array binding signal (z-score)	GalNAc4S6S(b1-4)GlcNAc	0.354
